Measured values reported in doi:10.1101/2024.08.01.24311333.
These are yes or no findings as the source states them, for the method shown. Binding seen in cells or lysates may run through a third protein. Some results given as binding are weak or reduced against the parent protein; the word gives no strength. For some of these results: Where a sequence is shown, tags or fusion partners need not be part of it. Each block holds one molecule with its values, some of them ahead of it.

Chains of the proteins cited; added tags and fusions are not shown. Residues count along the entry.
UniProt P24394, residues 26-825: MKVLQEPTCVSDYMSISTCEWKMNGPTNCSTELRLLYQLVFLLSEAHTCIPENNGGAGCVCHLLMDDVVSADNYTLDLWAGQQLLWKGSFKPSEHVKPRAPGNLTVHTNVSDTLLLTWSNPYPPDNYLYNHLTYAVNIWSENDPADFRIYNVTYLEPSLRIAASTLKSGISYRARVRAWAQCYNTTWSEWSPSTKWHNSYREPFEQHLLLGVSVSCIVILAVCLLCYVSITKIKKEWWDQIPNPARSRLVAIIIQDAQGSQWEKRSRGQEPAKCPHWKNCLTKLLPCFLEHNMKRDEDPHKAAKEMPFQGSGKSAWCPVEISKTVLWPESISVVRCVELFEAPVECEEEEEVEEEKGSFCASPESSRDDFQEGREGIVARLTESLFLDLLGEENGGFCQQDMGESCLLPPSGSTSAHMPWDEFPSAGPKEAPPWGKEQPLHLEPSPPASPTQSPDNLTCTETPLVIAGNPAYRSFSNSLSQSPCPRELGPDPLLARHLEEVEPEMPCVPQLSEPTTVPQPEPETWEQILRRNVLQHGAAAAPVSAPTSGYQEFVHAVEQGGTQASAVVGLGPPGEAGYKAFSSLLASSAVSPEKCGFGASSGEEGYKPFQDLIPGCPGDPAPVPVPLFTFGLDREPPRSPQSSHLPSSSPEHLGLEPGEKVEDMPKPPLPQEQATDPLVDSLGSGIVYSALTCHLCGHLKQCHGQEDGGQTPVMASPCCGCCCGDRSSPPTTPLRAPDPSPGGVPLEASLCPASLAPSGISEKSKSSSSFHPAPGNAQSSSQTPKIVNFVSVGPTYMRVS
UniProt Q9UNE7: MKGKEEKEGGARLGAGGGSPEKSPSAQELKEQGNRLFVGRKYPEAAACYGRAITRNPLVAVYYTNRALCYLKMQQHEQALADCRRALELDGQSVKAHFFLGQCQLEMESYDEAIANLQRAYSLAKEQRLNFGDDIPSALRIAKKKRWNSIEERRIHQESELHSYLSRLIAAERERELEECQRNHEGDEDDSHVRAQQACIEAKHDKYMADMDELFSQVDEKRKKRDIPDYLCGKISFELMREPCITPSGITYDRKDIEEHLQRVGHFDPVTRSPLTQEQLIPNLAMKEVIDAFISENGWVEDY

How the values were obtained:
Test in all cases: co-IP
[1] = target: T1, del-CDH26, FLAG-tagged (deleting amino acids 716-724, 787-794 and 802-817) (human) (UniProt Q8IXH8)
T1 sequence: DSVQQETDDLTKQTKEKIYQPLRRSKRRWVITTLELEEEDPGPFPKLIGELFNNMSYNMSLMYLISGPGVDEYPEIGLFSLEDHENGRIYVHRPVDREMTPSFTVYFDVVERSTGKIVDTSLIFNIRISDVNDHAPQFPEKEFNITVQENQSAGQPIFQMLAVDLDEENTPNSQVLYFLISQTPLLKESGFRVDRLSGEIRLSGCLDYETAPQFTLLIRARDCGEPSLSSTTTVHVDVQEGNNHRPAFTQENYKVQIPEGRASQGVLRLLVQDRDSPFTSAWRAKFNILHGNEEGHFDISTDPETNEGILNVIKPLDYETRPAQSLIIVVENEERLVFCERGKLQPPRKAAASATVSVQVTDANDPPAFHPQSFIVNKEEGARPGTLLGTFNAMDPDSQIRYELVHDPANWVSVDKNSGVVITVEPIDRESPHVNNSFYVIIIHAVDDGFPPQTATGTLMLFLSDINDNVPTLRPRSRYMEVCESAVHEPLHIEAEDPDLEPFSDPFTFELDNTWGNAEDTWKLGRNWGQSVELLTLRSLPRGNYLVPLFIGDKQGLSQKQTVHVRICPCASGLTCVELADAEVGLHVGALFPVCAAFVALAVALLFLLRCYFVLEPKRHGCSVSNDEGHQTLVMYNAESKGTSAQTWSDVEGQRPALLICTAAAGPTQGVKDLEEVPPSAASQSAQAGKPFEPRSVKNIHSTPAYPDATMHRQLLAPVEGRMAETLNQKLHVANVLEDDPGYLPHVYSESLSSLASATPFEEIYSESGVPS

[2] = target: Interleukin-4 receptor subunit alpha, GFP-tagged (UniProt P24394)
[3] = target: T2, Cadherin-26, FLAG-tagged, full-CDH26 (1-832) (human) (UniProt Q8IXH8)
T2 sequence: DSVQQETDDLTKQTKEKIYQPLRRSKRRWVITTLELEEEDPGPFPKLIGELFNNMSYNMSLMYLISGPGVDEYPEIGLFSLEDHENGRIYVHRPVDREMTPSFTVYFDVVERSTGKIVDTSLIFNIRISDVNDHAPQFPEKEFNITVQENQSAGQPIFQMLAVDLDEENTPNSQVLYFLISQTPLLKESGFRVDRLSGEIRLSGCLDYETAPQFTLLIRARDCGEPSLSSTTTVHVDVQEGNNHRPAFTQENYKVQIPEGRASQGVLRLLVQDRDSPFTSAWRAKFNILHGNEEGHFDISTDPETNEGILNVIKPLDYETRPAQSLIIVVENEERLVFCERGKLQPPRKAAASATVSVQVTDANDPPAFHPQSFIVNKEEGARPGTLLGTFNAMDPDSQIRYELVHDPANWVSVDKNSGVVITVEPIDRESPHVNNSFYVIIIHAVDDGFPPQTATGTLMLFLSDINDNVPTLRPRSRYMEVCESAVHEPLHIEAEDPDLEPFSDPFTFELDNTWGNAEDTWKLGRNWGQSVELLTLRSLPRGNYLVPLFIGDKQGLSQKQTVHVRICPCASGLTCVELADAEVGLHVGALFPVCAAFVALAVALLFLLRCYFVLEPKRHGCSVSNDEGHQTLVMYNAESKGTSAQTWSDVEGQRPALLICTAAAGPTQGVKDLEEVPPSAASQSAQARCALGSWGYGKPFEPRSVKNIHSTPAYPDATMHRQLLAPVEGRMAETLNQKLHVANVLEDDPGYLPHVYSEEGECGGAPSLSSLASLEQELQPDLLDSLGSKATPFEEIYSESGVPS

[4] = target: STIP1 homology and U-box-containing protein 1 (human (endogenous in HEK-293T)) (UniProt Q9UNE7)

- binding [1]: binds
- binding [2]: binds
- binding [3]: binds
Molecule: STIP1 homology and U-box-containing protein 1 (from UniProt Q9UNE7 1-303) (enzyme)

- binding [4]: binds
B1: Cadherin-26, FLAG-tagged, full-CDH26 (1-832) (protein, UniProt Q8IXH8 28-832)
chain: T2 sequence
